Results are given in words; binding and its absence hold for the method and conditions named. Some results given as binding are weak or reduced against the parent protein; the word gives no strength. For some assays here: Where a sequence is shown, tags or fusion partners need not be part of it.
B1: TIR domain of human Toll-like receptor 8 (TLR8TIR), released from the MBP hybrid by thrombin (domain or fragment, UniProt Q9NR97 878-1022)
chain: TFYDAYISYDTKDASVTDWVINELRYHLEESRDKNVLLCLEERDWDPGLAIIDNLMQSINQSKKTVFVLTKKYAKSWNFKTAFYLALQRLMDENMDVIIFILLEPVLQHSQYLRLRQRICKSSILQWPDNPKAEGLFWQTLRNVV

Protein sequences, listed by entry. Tags and fused reporters are not part of them. Residues count along the entry.
UniProt O60602, residues 691-836: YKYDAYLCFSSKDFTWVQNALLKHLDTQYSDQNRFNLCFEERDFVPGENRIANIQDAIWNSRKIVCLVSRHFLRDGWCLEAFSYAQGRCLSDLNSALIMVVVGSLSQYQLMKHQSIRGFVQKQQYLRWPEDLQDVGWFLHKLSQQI

Experiments:
[1] = target: TIR domain of human Toll-like receptor 5 (TLR5TIR), released from the MBP hybrid by thrombin (human) (UniProt O60602); experiment: SEC; gel filtration on Superdex 75i after thrombin cleavage of the MBP hybrid; 25 mM HEPES, 250 mM NaCl (TLR5) or 500 mM NaCl (TLR8), 1.5 mM TCEP, 15% glycerol, 0.005% NaN3, pH 8.3, 4°C; self-association, only an oligomeric fraction obtained; both purified
[2] = target: TIR domain of human Toll-like receptor 8 (TLR8TIR), released from the MBP hybrid by thrombin (human) (UniProt Q9NR97); experiment: as above

| Molecule | binding [1] | binding [2] |
| --- | --- | --- |
| TIR domain of human Toll-like receptor 5 (TLR5TIR), released from the MBP hybrid by thrombin (from UniProt O60602 691-836) (domain or fragment) | binds |  |
| B1 |  | binds |

Reference: publication PMC11226090
